Values from PubChem BioAssay AID1159578 (Peter MacCallum Cancer Centre, 2015).
Here is one part, drawn at random, of about 18,000 deposited reagents. Over the whole deposit, about 1,030 (5.7%) got an active call. 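Inactive calls also include pools with fewer than 3300 nuclei, whose migration was not assessed.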 Raw values are not corrected between plates. Further read-outs or replicates are left out here.

Aim: 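siRNA pools altering how lymphatic endothelial cells close a scratch wound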 (primary screen)
Cell system: human lymphatic endothelial cells
Reagents: siRNA pool against human genes, 40 nM
Timing: 48 h after transfection
Detection: 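Cells stained with dye and imaged after a scratch; covered wound area and nuclei counted, duplicates averaged, migration set against mock wells and turned into a robust z-score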
Reading the numbers: migration robust z-score: higher = faster migration into the scratch; nuclei per well: higher = more cells in the well
Rule for the call: 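Pools averaging fewer than 3300 nuclei are never called; remaining pools count as changed when migration robust z lies outside -2 to 2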
Meaning of the calls: active = migration changed; inactive = no migration change, or too few cells

SERPINA13P: migration robust z-score = -0.76; migration class with cell-count check = migration z between -2 and 2; enough cells; nuclei per well, duplicate mean = 6364; Call = inactive
KLRA1P: migration robust z-score = 0.65; migration class with cell-count check = migration z between -2 and 2; enough cells; nuclei per well, duplicate mean = 5326; Call = inactive
CYB5R5: migration robust z-score = -1.44; migration class with cell-count check = migration z between -2 and 2; enough cells; nuclei per well, duplicate mean = 4600; Call = inactive
ACSM2A: migration robust z-score = -0.56; migration class with cell-count check = migration z between -2 and 2; enough cells; nuclei per well, duplicate mean = 5697; Call = inactive
CHCHD1: migration robust z-score = 1.18; migration class with cell-count check = migration z between -2 and 2; enough cells; nuclei per well, duplicate mean = 5927; Call = inactive
PCDHGA11: migration robust z-score = 1.36; migration class with cell-count check = migration z between -2 and 2; enough cells; nuclei per well, duplicate mean = 5852; Call = inactive
RPL39L: migration robust z-score = -0.41; migration class with cell-count check = migration z between -2 and 2; enough cells; nuclei per well, duplicate mean = 5832; Call = inactive
RPS3: migration robust z-score = 0.26; migration class with cell-count check = migration z between -2 and 2; enough cells; nuclei per well, duplicate mean = 4626; Call = inactive

Reformatted: results already given
{"Target gene": "KLRA1P", "migration robust z-score": 0.65, "migration class with cell-count check": "migration z between -2 and 2; enough cells", "nuclei per well, duplicate mean": 5326, "Call": "inactive"}
{"Target gene": "CYB5R5", "migration robust z-score": -1.44, "migration class with cell-count check": "migration z between -2 and 2; enough cells", "nuclei per well, duplicate mean": 4600, "Call": "inactive"}

The list goes on:
CAMK2G: migration robust z-score = -1.38; migration class with cell-count check = migration z between -2 and 2; enough cells; nuclei per well, duplicate mean = 6091; Call = inactive
ORAI2: migration robust z-score = -0.07; migration class with cell-count check = migration z between -2 and 2; enough cells; nuclei per well, duplicate mean = 7183; Call = inactive
C1orf54: migration robust z-score = 0.58; migration class with cell-count check = migration z between -2 and 2; enough cells; nuclei per well, duplicate mean = 6098; Call = inactive
SEC16A: migration robust z-score = 0.96; migration class with cell-count check = migration z between -2 and 2; enough cells; nuclei per well, duplicate mean = 5302; Call = inactive
ARHGAP32: migration robust z-score = 0.88; migration class with cell-count check = migration z between -2 and 2; enough cells; nuclei per well, duplicate mean = 5832; Call = inactive
EEIG2: migration robust z-score = 1.06; migration class with cell-count check = migration z between -2 and 2; enough cells; nuclei per well, duplicate mean = 4783; Call = inactive
